PubChem BioAssay AID1224830, NIAID – 2016
The deposit covers about 18,000 reagents; below is a random part of them. Over the whole deposit, about 2,900 (16%) are marked active. 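Calls are made per well; low scores hint the gene aids the LPS response, high scores that it dampens it.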 Repeated entries: four replicate wells of each siRNA pool.

- Assay: 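Regulators of TLR4 signalling towards TNF-alpha in macrophage-like cells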 (primary screen)
- System: human THP-1 monocytic leukaemia cells, TNF dual-luciferase reporter clone, PMA-differentiated to macrophage-like cells
- Reagent: siRNA pool against human genes, 50 nM
- Time to read-out: LPS for 4 h, given about 3 days after siRNA transfection
- Conditions: bacterial LPS (TLR4 ligand), 10 ng/ml
- Read-out: 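Ratio of firefly to renilla light, scaled to the plate median and expressed as a robust z-score per replicate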
- Direction: TNF reporter robust z-score: higher = stronger TNF reporter response to LPS
- Rule for the call: 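a well is active when its z-score exceeds 2.8 or falls below -1.5; control wells carry no call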

no.	Target gene	TNF reporter robust z-score	Outcome
1	CCDC170 (coiled-coil domain containing 170)	-0.76	inactive
2	CCDC170 (coiled-coil domain containing 170)	-0.47	inactive
3	CCDC170 (coiled-coil domain containing 170)	-0.16	inactive
4	CCDC170 (coiled-coil domain containing 170)	-1.14	inactive
5	CEP126 (centrosomal protein 126)	-0.74	inactive
6	CEP126 (centrosomal protein 126)	0	inactive
7	CEP126 (centrosomal protein 126)	0.14	inactive
8	CEP126 (centrosomal protein 126)	-0.38	inactive
9	STEAP2 (STEAP2 metalloreductase)	1.09	inactive
10	STEAP2 (STEAP2 metalloreductase)	1.69	inactive
11	STEAP2 (STEAP2 metalloreductase)	1.32	inactive
12	STEAP2 (STEAP2 metalloreductase)	1.43	inactive
13	RFNG (RFNG O-fucosylpeptide 3-beta-N-acetylglucosaminyltransferase)	-0.35	inactive
14	RFNG (RFNG O-fucosylpeptide 3-beta-N-acetylglucosaminyltransferase)	0.56	inactive
15	RFNG (RFNG O-fucosylpeptide 3-beta-N-acetylglucosaminyltransferase)	0.54	inactive
16	RFNG (RFNG O-fucosylpeptide 3-beta-N-acetylglucosaminyltransferase)	1.19	inactive
17	CDK5R2 (cyclin dependent kinase 5 regulatory subunit 2)	-1.07	inactive
18	CDK5R2 (cyclin dependent kinase 5 regulatory subunit 2)	-1.14	inactive
19	CDK5R2 (cyclin dependent kinase 5 regulatory subunit 2)	-1	inactive
20	CDK5R2 (cyclin dependent kinase 5 regulatory subunit 2)	-0.69	inactive
21	AKR1C2 (aldo-keto reductase family 1 member C2)	3.1	active
22	AKR1C2 (aldo-keto reductase family 1 member C2)	2.22	inactive
23	AKR1C2 (aldo-keto reductase family 1 member C2)	2.35	inactive
24	AKR1C2 (aldo-keto reductase family 1 member C2)	3.16	active
25	ARL2BP (ARF like GTPase 2 binding protein)	1.16	inactive
26	ARL2BP (ARF like GTPase 2 binding protein)	0.68	inactive
27	ARL2BP (ARF like GTPase 2 binding protein)	-0.45	inactive
28	ARL2BP (ARF like GTPase 2 binding protein)	0.95	inactive
29	UGP2 (UDP-glucose pyrophosphorylase 2)	1.32	inactive
30	UGP2 (UDP-glucose pyrophosphorylase 2)	0.22	inactive
31	UGP2 (UDP-glucose pyrophosphorylase 2)	-0.72	inactive
32	UGP2 (UDP-glucose pyrophosphorylase 2)	0.64	inactive
33	HOXD12 (homeobox D12)	0.11	inactive
34	HOXD12 (homeobox D12)	0.01	inactive
35	HOXD12 (homeobox D12)	-0.88	inactive
36	HOXD12 (homeobox D12)	-0.79	inactive
37	DISC1 (DISC1 scaffold protein)	-0.65	inactive
38	DISC1 (DISC1 scaffold protein)	-0.17	inactive
39	DISC1 (DISC1 scaffold protein)	-1.05	inactive
40	DISC1 (DISC1 scaffold protein)	-0.15	inactive
41	MZT1 (mitotic spindle organizing protein 1)	0.93	inactive
42	MZT1 (mitotic spindle organizing protein 1)	0.02	inactive
43	MZT1 (mitotic spindle organizing protein 1)	-0.44	inactive
44	MZT1 (mitotic spindle organizing protein 1)	-0.14	inactive
45	CCZ1B (CCZ1B vacuolar protein trafficking and biogenesis associated)	-0.3	inactive
46	CCZ1B (CCZ1B vacuolar protein trafficking and biogenesis associated)	0.74	inactive
47	CCZ1B (CCZ1B vacuolar protein trafficking and biogenesis associated)	0.49	inactive
48	CCZ1B (CCZ1B vacuolar protein trafficking and biogenesis associated)	0.81	inactive
49	RAB5B (RAB5B, member RAS oncogene family)	0.96	inactive
50	RAB5B (RAB5B, member RAS oncogene family)	0.27	inactive
51	RAB5B (RAB5B, member RAS oncogene family)	0.31	inactive
52	RAB5B (RAB5B, member RAS oncogene family)	1.04	inactive
53	FIG4 (FIG4 phosphoinositide 5-phosphatase)	0.37	inactive
54	FIG4 (FIG4 phosphoinositide 5-phosphatase)	0.48	inactive
55	FIG4 (FIG4 phosphoinositide 5-phosphatase)	-0.51	inactive
56	FIG4 (FIG4 phosphoinositide 5-phosphatase)	0.65	inactive
57	PCYT2 (phosphate cytidylyltransferase 2, ethanolamine)	-0.56	inactive
58	PCYT2 (phosphate cytidylyltransferase 2, ethanolamine)	-0.52	inactive
59	PCYT2 (phosphate cytidylyltransferase 2, ethanolamine)	-0.96	inactive
60	PCYT2 (phosphate cytidylyltransferase 2, ethanolamine)	0.42	inactive
61	OR51L1 (olfactory receptor family 51 subfamily L member 1)	-0.83	inactive
62	OR51L1 (olfactory receptor family 51 subfamily L member 1)	-0.75	inactive
63	OR51L1 (olfactory receptor family 51 subfamily L member 1)	-0.94	inactive
64	OR51L1 (olfactory receptor family 51 subfamily L member 1)	-0.27	inactive
65	MAL2 (mal, T cell differentiation protein 2)	0.58	inactive
66	MAL2 (mal, T cell differentiation protein 2)	-0.12	inactive
67	MAL2 (mal, T cell differentiation protein 2)	-0.11	inactive
68	MAL2 (mal, T cell differentiation protein 2)	0.52	inactive
69	FOXD2 (forkhead box D2)	-0.41	inactive
70	FOXD2 (forkhead box D2)	0.68	inactive
71	FOXD2 (forkhead box D2)	0.08	inactive
72	FOXD2 (forkhead box D2)	0.4	inactive
73	CKMT2 (creatine kinase, mitochondrial 2)	-0.4	inactive
74	CKMT2 (creatine kinase, mitochondrial 2)	-0.96	inactive
75	CKMT2 (creatine kinase, mitochondrial 2)	-0.52	inactive
76	CKMT2 (creatine kinase, mitochondrial 2)	-0.26	inactive

Records listed so far marked active, once more:
Target gene	TNF reporter robust z-score	Outcome
AKR1C2 (aldo-keto reductase family 1 member C2)	3.1	active
AKR1C2 (aldo-keto reductase family 1 member C2)	3.16	active
